{"source": "PubChem BioAssay AID1508588, Peter MacCallum Cancer Centre | 2020", "aim": "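Genome-wide search for knock-downs that heighten vemurafenib action in melanoma cells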 (primary screen)", "cells": "human WM266.4 melanoma cells (BRAF V600 mutant)", "knock-down reagent": "siRNA pool against human genes, 40 nM", "time to read-out": "96 h from transfection to read-out", "challenge": "vemurafenib 300 nM (about IC25), added 48 h after transfection, for 48 h; comparison arm got DMSO vehicle only", "measurement": "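Cell gain (DAPI nuclei at end minus before drug, mean of two replicates) and medium lactate by absorbance per cell, both as ratio to non-targeting siRNA, also grouped into fold-change classes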", "scale": "cell gain with vemurafenib: higher = more cell gain than with non-targeting siRNA; lactate per cell with vemurafenib: higher = more lactate made per cell", "rule for the call": "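Enhancement is called by pairing each knock-down's vehicle-arm and drug-arm fold-change classes for viability or glycolysis; which class combinations qualify is not given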", "meaning of the calls": "active = enhances vemurafenib effect; inactive = no enhancement seen", "note": "This is an unselected part of about 18,000 deposited reagents. In the full data, 790 (4.4%) are marked active. 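Calls rest on a combination of fold-change classes in drug and vehicle arms, not all shown here.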 Unmarked entries are inactive."}
{"target": "H1-6", "cell gain with vemurafenib": 0.95, "lactate per cell with vemurafenib": 0.57}
{"target": "NRN1", "cell gain with vemurafenib": 0.28, "lactate per cell with vemurafenib": 1.74}
{"target": "BCAS1", "cell gain with vemurafenib": 0.48, "lactate per cell with vemurafenib": 1.39}
{"target": "PTGDR2", "cell gain with vemurafenib": 0.53, "lactate per cell with vemurafenib": 0.76}
{"target": "CFAP299", "cell gain with vemurafenib": 0.26, "lactate per cell with vemurafenib": 0.58}
{"target": "MAGEA8", "cell gain with vemurafenib": 0.96, "lactate per cell with vemurafenib": 1.65}
{"target": "GNA14", "cell gain with vemurafenib": 0.64, "lactate per cell with vemurafenib": 0.52}
{"target": "CDH26", "cell gain with vemurafenib": 0.23, "lactate per cell with vemurafenib": 1.14}
{"target": "HSPBP1", "cell gain with vemurafenib": 0.74, "lactate per cell with vemurafenib": 0.72}
{"target": "CNTN1", "cell gain with vemurafenib": 0.65, "lactate per cell with vemurafenib": 0.76}
{"target": "ANXA13", "cell gain with vemurafenib": 0.97, "lactate per cell with vemurafenib": 1.25}
{"target": "USP38", "cell gain with vemurafenib": 1.17, "lactate per cell with vemurafenib": 0.56}
{"target": "CNOT9", "cell gain with vemurafenib": 0.6, "lactate per cell with vemurafenib": 0.9}
{"target": "IL4", "cell gain with vemurafenib": 0.78, "lactate per cell with vemurafenib": 1.22}
{"target": "CD1C", "cell gain with vemurafenib": 1.14, "lactate per cell with vemurafenib": 0.82}
{"target": "CASP1", "cell gain with vemurafenib": 0.59, "lactate per cell with vemurafenib": 0.87}
{"target": "MVB12A", "cell gain with vemurafenib": 0.77, "lactate per cell with vemurafenib": 0.54}
{"target": "CNRIP1", "cell gain with vemurafenib": 1.02, "lactate per cell with vemurafenib": 0.74}
{"target": "MAPK7", "cell gain with vemurafenib": 0.6, "lactate per cell with vemurafenib": 1.09}
{"target": "TGFBR2", "cell gain with vemurafenib": 0.46, "lactate per cell with vemurafenib": 0.76}
{"target": "NOL3", "cell gain with vemurafenib": 0.43, "lactate per cell with vemurafenib": 1.23}
{"target": "NRIP3", "cell gain with vemurafenib": 0.72, "lactate per cell with vemurafenib": 0.64}
{"target": "GALNT15", "cell gain with vemurafenib": 0.57, "lactate per cell with vemurafenib": 0.55}
{"target": "AIG1", "cell gain with vemurafenib": 0.71, "lactate per cell with vemurafenib": 0.73}
{"target": "SNURF", "cell gain with vemurafenib": 1.05, "lactate per cell with vemurafenib": 0.9}
{"target": "SNAP23", "cell gain with vemurafenib": 1.02, "lactate per cell with vemurafenib": 0.2}
{"target": "S100A11", "cell gain with vemurafenib": 0.6, "lactate per cell with vemurafenib": 0.98}
{"target": "LNPK", "cell gain with vemurafenib": 0.37, "lactate per cell with vemurafenib": 1.82}
{"target": "SH3PXD2B", "cell gain with vemurafenib": 1.22, "lactate per cell with vemurafenib": 1.12}
{"target": "CNTN3", "cell gain with vemurafenib": 0.42, "lactate per cell with vemurafenib": 1.09}
{"target": "ASAH2B", "cell gain with vemurafenib": 0.33, "lactate per cell with vemurafenib": 0.46}
{"target": "ATP6V0A2", "cell gain with vemurafenib": 0.6, "lactate per cell with vemurafenib": 1.3}
{"target": "CERS2", "cell gain with vemurafenib": 0.57, "lactate per cell with vemurafenib": 0.93}
{"target": "LY6K", "cell gain with vemurafenib": 0.74, "lactate per cell with vemurafenib": 0.71}
{"target": "ZDHHC4", "cell gain with vemurafenib": 0.65, "lactate per cell with vemurafenib": 1.3}
{"target": "PRKRA", "cell gain with vemurafenib": 0.64, "lactate per cell with vemurafenib": 1.12}
{"target": "FGFR4", "cell gain with vemurafenib": 0.82, "lactate per cell with vemurafenib": 0.92}
{"target": "TWIST2", "cell gain with vemurafenib": 0.8, "lactate per cell with vemurafenib": 1.33}
{"target": "OSTC", "cell gain with vemurafenib": 0.31, "lactate per cell with vemurafenib": 1.5}
{"target": "ARF3", "cell gain with vemurafenib": 0.64, "lactate per cell with vemurafenib": 1.5}
{"target": "RIPK4", "cell gain with vemurafenib": 0.8, "lactate per cell with vemurafenib": 0.52}
{"target": "SLC5A1", "cell gain with vemurafenib": 0.12, "lactate per cell with vemurafenib": 1.21}
{"target": "ASB3", "cell gain with vemurafenib": 0.36, "lactate per cell with vemurafenib": 1.12}
{"target": "CSNK1G1", "cell gain with vemurafenib": 0.72, "lactate per cell with vemurafenib": 0.93}
{"target": "PAIP1", "cell gain with vemurafenib": 0.76, "lactate per cell with vemurafenib": 1.1}
{"target": "CPZ", "cell gain with vemurafenib": 0.11, "lactate per cell with vemurafenib": 0.96}
{"target": "C16orf86", "cell gain with vemurafenib": 1.05, "lactate per cell with vemurafenib": 0.6}
{"target": "LCE1E", "cell gain with vemurafenib": 0.26, "lactate per cell with vemurafenib": 0.82}
{"target": "OR4D9", "cell gain with vemurafenib": 0.45, "lactate per cell with vemurafenib": 0.85}
{"target": "ZFP36L2", "cell gain with vemurafenib": 0.7, "lactate per cell with vemurafenib": 0.43}
{"target": "ALLC", "cell gain with vemurafenib": 0.64, "lactate per cell with vemurafenib": 0.42}
{"target": "RSAD2", "cell gain with vemurafenib": 0.49, "lactate per cell with vemurafenib": 0.34}

7 entries from above, set out differently.
PAIP1
- cell gain with vemurafenib: 0.76
- lactate per cell with vemurafenib: 1.1

CPZ
- cell gain with vemurafenib: 0.11
- lactate per cell with vemurafenib: 0.96

C16orf86
- cell gain with vemurafenib: 1.05
- lactate per cell with vemurafenib: 0.6

LCE1E
- cell gain with vemurafenib: 0.26
- lactate per cell with vemurafenib: 0.82

OR4D9
- cell gain with vemurafenib: 0.45
- lactate per cell with vemurafenib: 0.85

ZFP36L2
- cell gain with vemurafenib: 0.7
- lactate per cell with vemurafenib: 0.43

ALLC
- cell gain with vemurafenib: 0.64
- lactate per cell with vemurafenib: 0.42
